In all, about 33,000 sequences were measured (“E-score (-0.5 to 0.5)”: median about -0.015, highest 2% from about 0.3 on). The list shows a part of the results.
What follows are sequences tested against T1, Abf1 (UniProt P14164) (assay: PBM E-score (8-mer binding enrichment) (E-score (-0.5 to 0.5)); higher = stronger / more preferred TF binding). Conditions: protein concentration: 200 nM; construct: GST-full length.
T1 sequence: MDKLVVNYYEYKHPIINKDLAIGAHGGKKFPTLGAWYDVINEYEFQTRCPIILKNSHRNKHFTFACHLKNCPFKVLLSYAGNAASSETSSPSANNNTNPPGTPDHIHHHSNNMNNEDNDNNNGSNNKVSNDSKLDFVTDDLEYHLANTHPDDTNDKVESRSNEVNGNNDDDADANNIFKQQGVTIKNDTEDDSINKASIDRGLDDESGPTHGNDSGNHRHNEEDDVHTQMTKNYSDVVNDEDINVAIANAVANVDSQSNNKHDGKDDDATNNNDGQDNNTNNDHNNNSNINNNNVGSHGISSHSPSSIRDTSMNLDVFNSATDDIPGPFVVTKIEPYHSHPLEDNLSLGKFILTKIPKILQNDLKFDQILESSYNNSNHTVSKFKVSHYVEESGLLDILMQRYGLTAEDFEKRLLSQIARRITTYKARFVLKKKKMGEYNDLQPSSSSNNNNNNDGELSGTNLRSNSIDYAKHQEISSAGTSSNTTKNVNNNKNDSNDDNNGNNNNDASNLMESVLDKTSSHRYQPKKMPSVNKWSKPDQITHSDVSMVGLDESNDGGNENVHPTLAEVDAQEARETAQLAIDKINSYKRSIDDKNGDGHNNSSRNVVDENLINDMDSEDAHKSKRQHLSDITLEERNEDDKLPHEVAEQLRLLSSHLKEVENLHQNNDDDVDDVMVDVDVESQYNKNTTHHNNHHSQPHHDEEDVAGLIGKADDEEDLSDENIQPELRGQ
Protocol: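 Universal 'all 10-mer' protein binding microarrays (Agilent AMADID 015681) probed with GST-tagged S. cerevisiae TFs (full-length or DBD) made by in vitro transcription/translation (PURExpress), about 100-200 nM. Bound TF was detected with fluorescent anti-GST. Each ungapped 8-mer (which stands for itself and its reverse complement) is scored by the PBM enrichment score (E-score), a modified Wilcoxon-Mann-Whitney statistic from -0.5 to +0.5, computed with the Universal PBM Analysis Suite. Scale: above 0.35 generally sequence-specific binding.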

Sequence	PBM E-score
CCGCACAC	-0.0593
CAAATCAA	0.0796
CAAGTATG	0.114
TCGAGCGA	0.0549
ACACAAAG	-0.11
ACAGTACA	0.015
AATTGTCC	-0.0973
AGATCGGA	-0.123
CCTGATTA	0.162
CCGACTGA	0.011
AATAGGGT	-0.146
CCGACGCC	-0.229
CACACTCA	0.213
CCCGGGCC	-0.304
ATGTGGCG	-0.0935
GCCCTCGC	-0.161
GTGTATAA	-0.123
AGCCTCCC	-0.204
ATACACTA	0.0538
AATCCTTA	-0.00948
CCTTTAAC	0.196
GAAGTCAA	0.158
AGCCTTTC	-0.176
ATTCAACA	0.119
ATAGTCAT	0.198

Sequence	PBM E-score
AAAAGCCT	-0.15
CCCCCCCG	-0.328
ATTCGCGA	0.094
CACGCTCC	-0.00778
CAGATATA	0.167
CGAATCCG	-0.0867
CGCATGTA	0.135
CGTACAAG	0.357
CTAATTCA	0.0988
AGTTATAA	-0.0216
ATGTCGTG	0.277
CAGTGAAA	0.0736
ATGTCTGA	0.0406
ACTGTTAC	-0.108
AAGCTCGA	-0.05
CCATTTTC	0.178
AGTTATGC	0.0932
ACAGCACC	-0.107
ACCGCCTA	-0.0219
ACCAAGCA	-0.134
ACAGCCGG	-0.0292
CATATTAA	0.315
GGTTTGGA	0.0886
CGGGTCCC	-0.349
GTCCTCAA	0.0163

Sequence	PBM E-score
AATTCTGA	-0.0156
TAAGCACA	0.0424
GTGAGGGA	-0.0867
ATACACTC	0.126
CTCAAGGC	-0.267
CAACGTCG	0.143
GACGCGGA	-0.277
ATGTGCTC	0.133
ATCCCATG	-0.14
GGTCAGCA	-0.0516
GCGTATAC	-0.0117
CCGCATAC	0.00647
ATCCAGCA	-0.012
CGTTGTAC	0.217
AGGAGAAC	-0.188
ATGGAGTA	-0.0199
CGCTAGTC	-0.0644
GGCAGAAA	0.132
CTCGTCTA	-0.0652
AAGTACAC	0.00665
ATAGGCCC	-0.356
AAGCAATA	-0.161
AACGGCTA	0.193
GTCCTCAC	0.0512
AGTTGGGG	-0.00162

Sequence	PBM E-score
CGCACATA	-0.139
CCAGGCCG	0.105
AGAGAGCT	-0.278
CAAAAGGA	0.11
GACGAACA	0.253
ATTCAAGA	0.058
ATCCAAAT	-0.0232
TGACTCAA	0.184
GAAAACCA	-0.112
ATCGCATA	0.0573
ATGGGATA	-0.152
GGTCCTTA	-0.113
AGATTCCG	0.183
ACTGCTCA	0.143
CCCTCTTC	-0.156
ATTCCCAA	0.0326
GCGGGCCC	-0.138
ACATTAAC	0.0514
GTTTTTCA	-0.0368
CTCCTTAC	-0.0953
AGCGTCCT	-0.122
AGTTCCGC	-0.259
ACGAGGAT	0.0974
AGTGACCG	0.125
GCCTAGGC	-0.0604

Sequence	PBM E-score
CCTGGCTC	-0.0859
ACGTCTAG	0.167
CCGACGAA	0.205
ACCGTGGA	0.0601
CAGTAAGA	0.113
ACTCACGG	0.148
AGTGGTGC	-0.14
GCCTGACC	-0.00528
AGGTGAGC	-0.173
ACCCCCTG	-0.352
CGTCATTA	0.327
AACCAACA	-0.00626
CGTTTATC	0.297
ATCATCCC	0.197
ACTAAACA	-0.0138
GTCAACCA	-0.152
ATGACGAC	0.265
ACCACGCG	-0.039
ATAGTGGG	-0.075
CGTGGCAG	0.133
GTTAGGGA	-0.072
CGCGTGGA	0.00451
AACCGCGT	-0.0708
CACGTTCG	-0.108
CTAGGAGA	-0.236

Given as comma-separated lines: entries from further up
Sequence,PBM E-score
CAAATCAA,0.0796
TCGAGCGA,0.0549
ACAGTACA,0.015
CCTGATTA,0.162
CACACTCA,0.213
GTGTATAA,-0.123
AGCCTCCC,-0.204
ATACACTA,0.0538
CCTTTAAC,0.196
ATTCAACA,0.119
AAAAGCCT,-0.15
CACGCTCC,-0.00778
CAGATATA,0.167
AGTTATAA,-0.0216
ATGTCTGA,0.0406
ACTGTTAC,-0.108
ACCAAGCA,-0.134
CATATTAA,0.315
GGTTTGGA,0.0886
GTCCTCAA,0.0163
AATTCTGA,-0.0156
GTGAGGGA,-0.0867
CTCAAGGC,-0.267
GACGCGGA,-0.277
ATGTGCTC,0.133
GGTCAGCA,-0.0516
CGTTGTAC,0.217
AGGAGAAC,-0.188
CGCTAGTC,-0.0644
ATAGGCCC,-0.356
GTCCTCAC,0.0512
CCAGGCCG,0.105
GAAAACCA,-0.112
AGATTCCG,0.183
ACTGCTCA,0.143
CCCTCTTC,-0.156
GCGGGCCC,-0.138
AGTTCCGC,-0.259
CCGACGAA,0.205
CAGTAAGA,0.113
ACTCACGG,0.148
AGTGGTGC,-0.14
GCCTGACC,-0.00528
AACCAACA,-0.00626
ATCATCCC,0.197
ACTAAACA,-0.0138
CGTGGCAG,0.133
CGCGTGGA,0.00451
CACGTTCG,-0.108

The list continues.

Sequence	PBM E-score
CACAGGTC	-0.0396
ATAGGCCG	0.00399
GTACTTAA	-0.0261
ATACAAAC	0.222
CATGAACC	-0.00224
CACGTAGC	-0.114
CCCCTAAG	-0.15
CGTTGCCC	-0.163
GAATTGGA	-0.016
TGACTCCA	-0.181
TTAATAAA	0.123
GACCATGC	0.0213
GTAATGGA	0.138
CCGTCAGG	0.162
CCGATACG	0.121
ACTCCTGG	-0.316
AAGACTTC	-0.0816
GGCGCCGA	-0.215
AACGAACA	0.215
AGCCTGCC	-0.174
GAGACCGA	-0.0902
TCCAAAAA	0.148
CAACGTCA	0.177
AATCGCTA	-0.0656
CCTAAAGC	-0.215

Sequence	PBM E-score
TGAACTCA	0.122
GCCCTGAA	0.122
ATGAAATA	0.235
GGGTAGAA	-0.0486
ATCCATAC	0.159
GGGAGTAC	-0.171
ACCCAACG	-0.0268
ATATGGAC	0.0594
CCCATTCC	-0.304
GCAGGCCC	-0.35
CTTCAACC	-0.0665
AAGATTAG	0.142
AAACTCCC	-0.275
GCCTTAGC	-0.114
GTGGTCTA	-0.195
ATTTTCGA	0.0858
GATGTCCC	0.209
ACGATGCT	0.248
CCTAACCC	-0.275
AACTAGAA	0.00854
GTCAGGAC	0.0181
CTAGTAGA	-0.00223
CACGGCCC	0.0309
CTTGGGAA	0.0477
ACACCGTC	0.065

Sequence	PBM E-score
AGCGCCCG	-0.139
GCGTTGAA	-0.0702
CAGTTGAC	0.00605
CCGCGCCA	-0.197
AATAGAAC	0.01
ACTTTCTC	-0.103
GTCGATCA	0.0951
GGTTTCAA	-0.0203
GCCCGGTA	-0.259
ATTGAGCG	0.00117
AATGCATG	-0.108
CGGACTGC	-0.0758
ATTCGTTA	0.233
AATCTTGA	-0.16
CGTAAATA	0.299
ATTTTCCG	0.1
AGATCGAG	-0.0692
GCCCCCTA	-0.227
CAGTTAAC	-0.0314
GCTGCCCC	-0.172
ACCCATAA	0.0543
AGGCATGG	-0.0197
AATGCTTA	-0.213
GGGGTCAA	-0.0161
AAACGAGA	-0.0205

Sequence	PBM E-score
AGTGCCTG	-0.09
GGAAGTCA	0.0206
AGCATGCC	-0.245
CGCCCGCA	-0.138
CACGCTAA	0.0897
CAACTGGG	-0.0759
CCCTGTTC	-0.22
TGGCAGAA	0.0106
GATCCCCA	-0.167
CGAATCTA	0.0898
GTTGCATA	0.0235
CTTCCAAG	-0.173
GAGCACAC	-0.062
ATCTCGCG	0.206
ACTGTTTA	0.00268
AAGCCATG	-0.172
ATGTTAAC	-0.0314
AGTCTCAG	-0.142
ATCTACTA	0.201

Source: the supplement of paper PMC3334620
